Assay [1] deals with eGFP-ATG2A overexpressed in HEK293A cells (UniProt Q2TAZ0). Kind of assay: co-IP; GFP-TRAP beads on lysates of HEK293A cells overexpressing GFP-ATG2A and 3×FLAG-6×His-ATG9A or -ATG9B; TNTE buffer (0.5% Triton X-100), overnight at 4°C; western blot. (In general: Immunoblotting shows a protein as a band on a membrane.)
Assay [2] deals with 3×FLAG-ATG2A expressed in Expi293 cells, co-purified with ATG9B (UniProt Q2TAZ0). Kind of assay: cryo-EM 2D class averages of the co-purified complex; cells expressing ATG9B and cells expressing ATG2A mixed after resuspension; complex purified on anti-FLAG resin and by SEC in LMNG-CHS, then imaged; no 3D reconstruction obtained; both purified. (In gel filtration, larger molecules generally elute earlier.)

Amino acid sequences for entries named in this document (tags omitted).
UniProt Q2TAZ0: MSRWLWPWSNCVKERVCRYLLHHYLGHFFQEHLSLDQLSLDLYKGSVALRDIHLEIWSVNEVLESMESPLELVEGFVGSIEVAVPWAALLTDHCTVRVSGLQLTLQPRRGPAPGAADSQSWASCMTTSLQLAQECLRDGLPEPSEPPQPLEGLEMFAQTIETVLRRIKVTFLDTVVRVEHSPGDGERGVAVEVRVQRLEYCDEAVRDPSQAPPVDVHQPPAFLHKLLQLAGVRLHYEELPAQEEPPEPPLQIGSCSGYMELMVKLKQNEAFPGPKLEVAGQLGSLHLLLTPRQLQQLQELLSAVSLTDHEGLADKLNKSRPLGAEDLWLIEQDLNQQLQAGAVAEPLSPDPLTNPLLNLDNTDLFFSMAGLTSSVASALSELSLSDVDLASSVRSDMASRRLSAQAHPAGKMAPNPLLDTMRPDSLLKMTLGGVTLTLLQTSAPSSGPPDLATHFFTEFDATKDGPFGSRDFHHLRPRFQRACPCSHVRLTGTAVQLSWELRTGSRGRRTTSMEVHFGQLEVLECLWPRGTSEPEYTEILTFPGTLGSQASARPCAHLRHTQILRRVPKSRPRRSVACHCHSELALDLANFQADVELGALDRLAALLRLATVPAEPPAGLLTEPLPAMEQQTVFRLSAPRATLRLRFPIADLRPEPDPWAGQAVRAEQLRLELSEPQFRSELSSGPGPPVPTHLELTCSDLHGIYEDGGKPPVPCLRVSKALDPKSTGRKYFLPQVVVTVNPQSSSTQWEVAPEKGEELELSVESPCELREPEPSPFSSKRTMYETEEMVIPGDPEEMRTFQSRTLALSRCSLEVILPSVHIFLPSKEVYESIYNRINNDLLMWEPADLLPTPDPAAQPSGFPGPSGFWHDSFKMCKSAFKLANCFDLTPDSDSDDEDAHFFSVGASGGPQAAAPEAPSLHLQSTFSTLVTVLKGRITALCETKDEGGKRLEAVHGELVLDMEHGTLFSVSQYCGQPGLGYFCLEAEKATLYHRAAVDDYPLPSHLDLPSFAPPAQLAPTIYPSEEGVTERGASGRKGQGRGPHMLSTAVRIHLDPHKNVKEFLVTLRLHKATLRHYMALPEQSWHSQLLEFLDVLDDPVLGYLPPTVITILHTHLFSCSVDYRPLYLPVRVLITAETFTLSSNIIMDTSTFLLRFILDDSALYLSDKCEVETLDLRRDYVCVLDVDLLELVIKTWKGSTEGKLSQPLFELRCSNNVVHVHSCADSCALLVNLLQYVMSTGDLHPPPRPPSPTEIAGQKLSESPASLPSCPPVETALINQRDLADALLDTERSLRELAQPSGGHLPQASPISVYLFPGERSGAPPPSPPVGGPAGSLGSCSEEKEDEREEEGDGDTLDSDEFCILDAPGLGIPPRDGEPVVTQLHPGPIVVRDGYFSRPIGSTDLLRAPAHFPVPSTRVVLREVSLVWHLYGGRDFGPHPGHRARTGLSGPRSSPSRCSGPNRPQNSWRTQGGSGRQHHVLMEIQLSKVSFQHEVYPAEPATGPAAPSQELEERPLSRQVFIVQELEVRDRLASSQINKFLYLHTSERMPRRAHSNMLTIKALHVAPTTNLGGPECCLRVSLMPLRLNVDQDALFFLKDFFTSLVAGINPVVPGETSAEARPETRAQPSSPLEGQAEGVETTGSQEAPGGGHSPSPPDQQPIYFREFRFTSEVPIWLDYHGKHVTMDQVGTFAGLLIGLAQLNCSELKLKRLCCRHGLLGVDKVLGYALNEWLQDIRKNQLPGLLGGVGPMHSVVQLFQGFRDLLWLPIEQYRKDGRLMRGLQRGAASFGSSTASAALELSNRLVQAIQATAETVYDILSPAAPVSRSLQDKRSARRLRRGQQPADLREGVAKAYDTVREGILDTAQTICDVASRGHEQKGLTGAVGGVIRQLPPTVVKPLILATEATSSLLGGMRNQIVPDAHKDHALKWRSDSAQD

No constants are given. Whether binding was seen depends on the method and setting. For some assays here: Binding seen in cells or lysates may run through a third protein. Some binding calls cover weakened binding; strength is not graded here. Where a sequence is shown, tags or fusion partners need not be part of it.

B1: 3×FLAG-His6-TEV-ATG9B overexpressed in HEK293A cells (protein, UniProt Q674R7-1 1-924)
chain: MVSRMGWGGRRRRLGRWGDLGPGSVPLLPMPLPPPPPPSCRGPGGGRISIFSLSPAPHTRSSPSSFSPPTAGPPCSVLQGTGASQSCHSALPIPATPPTQAQPAMTPASASPSWGSHSTPPLAPATPTPSQQCPQDSPGLRVGPLIPEQDYERLEDCDPEGSQDSPIHGEEQQPLLHVPEGLRGSWHHIQNLDSFFTKIYSYHQRNGFACILLEDVFQLGQFIFIVTFTTFLLRCVDYNVLFANQPSNHTRPGPFHSKVTLSDAILPSAQCAERIRSSPLLVLLLVLAAGFWLVQLLRSVCNLFSYWDIQVFYREALHIPPEELSSVPWAEVQSRLLALQRSGGLCVQPRPLTELDIHHRILRYTNYQVALANKGLLPARCPLPWGGSAAFLSRGLALNVDLLLFRGPFSLFRGGWELPHAYKRSDQRGALAARWGRTVLLLAALNLALSPLVLAWQVLHVFYSHVELLRREPGALGARGWSRLARLQLRHFNELPHELRARLARAYRPAAAFLRTAAPPAPLRTLLARQLVFFAGALFAALLVLTVYDEDVLAVEHVLTAMTALGVTATVARSFIPEEQCQGRAPQLLLQTALAHMHYLPEEPGPGGRDRAYRQMAQLLQYRAVSLLEELLSPLLTPLFLLFWFRPRALEIIDFFHHFTVDVAGVGDICSFALMDVKRHGHPQWLSAGQTEASLSQRAEDGKTELSLMRFSLAHPLWRPPGHSSKFLGHLWGRVQQDAAAWGATSARGPSTPGVLSNCTSPLPEAFLANLFVHPLLPPRDLSPTAPCPAAATASLLASISRIAQDPSSVSPGGTGGQKLAQLPELASAEMSLHVIYLHQLHQQQQQQEPWGEAAASILSRPCSSPSQPPSPDEEKPSWSSDGSSPASSPRQQWGTQKARNLFPGGFQVTTDTQKEPDRASCTD
For the molecule B1, the binding entry in assay [1] is given as “binds”.

B2: 3×FLAG-6×His-TEV-ATG9B (full-length human ATG9B), purified from Expi293 cells (natural protein, UniProt Q674R7-1 1-924, looked up)
chain: MVSRMGWGGRRRRLGRWGDLGPGSVPLLPMPLPPPPPPSCRGPGGGRISIFSLSPAPHTRSSPSSFSPPTAGPPCSVLQGTGASQSCHSALPIPATPPTQAQPAMTPASASPSWGSHSTPPLAPATPTPSQQCPQDSPGLRVGPLIPEQDYERLEDCDPEGSQDSPIHGEEQQPLLHVPEGLRGSWHHIQNLDSFFTKIYSYHQRNGFACILLEDVFQLGQFIFIVTFTTFLLRCVDYNVLFANQPSNHTRPGPFHSKVTLSDAILPSAQCAERIRSSPLLVLLLVLAAGFWLVQLLRSVCNLFSYWDIQVFYREALHIPPEELSSVPWAEVQSRLLALQRSGGLCVQPRPLTELDIHHRILRYTNYQVALANKGLLPARCPLPWGGSAAFLSRGLALNVDLLLFRGPFSLFRGGWELPHAYKRSDQRGALAARWGRTVLLLAALNLALSPLVLAWQVLHVFYSHVELLRREPGALGARGWSRLARLQLRHFNELPHELRARLARAYRPAAAFLRTAAPPAPLRTLLARQLVFFAGALFAALLVLTVYDEDVLAVEHVLTAMTALGVTATVARSFIPEEQCQGRAPQLLLQTALAHMHYLPEEPGPGGRDRAYRQMAQLLQYRAVSLLEELLSPLLTPLFLLFWFRPRALEIIDFFHHFTVDVAGVGDICSFALMDVKRHGHPQWLSAGQTEASLSQRAEDGKTELSLMRFSLAHPLWRPPGHSSKFLGHLWGRVQQDAAAWGATSARGPSTPGVLSNCTSPLPEAFLANLFVHPLLPPRDLSPTAPCPAAATASLLASISRIAQDPSSVSPGGTGGQKLAQLPELASAEMSLHVIYLHQLHQQQQQQEPWGEAAASILSRPCSSPSQPPSPDEEKPSWSSDGSSPASSPRQQWGTQKARNLFPGGFQVTTDTQKEPDRASCTD
notes: ATG9B, human, canonical isoform 1 (Q674R7-1), full length; residues 191-674 visible in the cryo-EM map; A TEV site lies between the 6×His tag and ATG9B; no cleavage is described; Eluted from the anti-FLAG resin with 3×FLAG peptide; In LMNG-CHS micelles; also called ATG9B homotrimer; pcDNA3.1-3×FLAG-6×His-TEV-ATG9B; source: Expi293, transiently transfected, extracted into detergent micelles, …
For the molecule B2, the binding result in assay [2] is reported as “binds”.

For the origin of these results see PMC10936676, “ATG9B is a tissue-specific homotrimeric lipid scramblase that can compensate for ATG9A” (Autophagy, 2023).
